Assay results from PMC9307114, “Discovery and SAR analysis of phenylbenzo[d][1,3]dioxole-based proprotein convertase subtilisin/kexin type 9 inhibitors” (Journal of Enzyme Inhibition and Medicinal Chemistry, 2022).

Tested on: HepG2 cells
Assay: MTT assay on HepG2 cells
Format: cell-based, human
Conditions: 10 µM, mean of three experiments

## O=C(CCCCCCC(=O)Nc1ccccc1)NO [SAHA, reference compound]
  HepG2 percentage inhibitory rate: 89.2 ± 1.76%
